Results reported in paper PMC9535016.
Results are given in words; binding and its absence hold for the method and conditions named. Binding seen in cells or lysates may run through a third protein. Some binding calls cover weakened binding; strength is not graded here. For some of these results: Sequences can lack the tags named with a protein. Blank lines part the entries; values can stand above or below the molecule they belong to.

By UniProt entry, the sequences of proteins in these tests, tags left out. Where a name states a change or a piece, a line headed by the entry shows the natural chain unless it says otherwise.
UniProt Q9H6L5: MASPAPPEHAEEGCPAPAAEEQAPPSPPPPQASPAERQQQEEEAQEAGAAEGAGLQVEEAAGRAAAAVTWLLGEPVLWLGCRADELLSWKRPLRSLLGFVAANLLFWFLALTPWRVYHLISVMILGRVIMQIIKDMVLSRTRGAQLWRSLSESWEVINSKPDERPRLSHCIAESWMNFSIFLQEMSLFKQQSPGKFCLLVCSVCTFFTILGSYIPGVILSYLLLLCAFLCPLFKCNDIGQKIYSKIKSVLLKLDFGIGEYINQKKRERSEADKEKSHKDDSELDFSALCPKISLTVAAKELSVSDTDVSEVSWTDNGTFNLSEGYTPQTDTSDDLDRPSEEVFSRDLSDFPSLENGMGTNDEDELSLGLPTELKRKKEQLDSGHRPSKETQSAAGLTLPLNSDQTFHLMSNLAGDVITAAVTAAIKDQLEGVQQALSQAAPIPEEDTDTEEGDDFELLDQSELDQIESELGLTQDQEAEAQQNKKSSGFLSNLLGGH

Experiments:
[1] = target: T1, HA-tagged O-GlcNAc transferase (OGT) (human (from the printed RefSeq NM_181672)) (UniProt O15294); experiment: co-IP; human NP cells cotransfected with HA-OGT and Flag-FAM134B; whole-cell lysates immunoprecipitated with anti-Flag or anti-HA antibodies, blotted with anti-Flag and anti-HA
T1 sequence: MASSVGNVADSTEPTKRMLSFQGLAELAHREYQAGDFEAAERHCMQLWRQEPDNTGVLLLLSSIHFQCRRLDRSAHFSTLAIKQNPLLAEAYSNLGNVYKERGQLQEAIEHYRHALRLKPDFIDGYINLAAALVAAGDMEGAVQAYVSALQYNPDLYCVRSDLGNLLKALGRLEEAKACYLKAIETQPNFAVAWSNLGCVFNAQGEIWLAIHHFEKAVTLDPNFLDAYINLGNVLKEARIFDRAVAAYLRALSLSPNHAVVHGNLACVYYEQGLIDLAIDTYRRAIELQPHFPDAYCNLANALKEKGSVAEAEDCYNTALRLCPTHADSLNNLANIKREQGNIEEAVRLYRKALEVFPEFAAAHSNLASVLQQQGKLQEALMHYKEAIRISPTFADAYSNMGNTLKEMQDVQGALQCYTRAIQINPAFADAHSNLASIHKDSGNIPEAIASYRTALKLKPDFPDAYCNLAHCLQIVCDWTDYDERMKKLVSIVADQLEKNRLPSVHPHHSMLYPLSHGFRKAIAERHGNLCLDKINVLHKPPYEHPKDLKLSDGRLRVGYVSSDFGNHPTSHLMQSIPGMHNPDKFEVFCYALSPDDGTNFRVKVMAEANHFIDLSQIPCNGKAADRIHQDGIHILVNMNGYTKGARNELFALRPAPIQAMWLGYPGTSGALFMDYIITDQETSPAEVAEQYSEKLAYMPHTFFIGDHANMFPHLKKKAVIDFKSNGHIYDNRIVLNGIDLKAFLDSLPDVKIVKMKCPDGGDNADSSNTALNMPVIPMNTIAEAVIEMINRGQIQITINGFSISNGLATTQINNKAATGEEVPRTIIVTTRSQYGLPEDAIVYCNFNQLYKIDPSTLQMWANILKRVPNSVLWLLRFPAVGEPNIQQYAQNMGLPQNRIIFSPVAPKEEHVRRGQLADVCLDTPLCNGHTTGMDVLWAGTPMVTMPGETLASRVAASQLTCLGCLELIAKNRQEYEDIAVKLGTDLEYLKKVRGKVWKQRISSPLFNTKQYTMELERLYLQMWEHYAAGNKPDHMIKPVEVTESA

[2] = target: T2, endogenous O-GlcNAc transferase (OGT) (human (endogenous in NP cells)) (UniProt O15294); experiment: co-IP; endogenous proteins in human NP cells, control or nutrient deprivation (ND); reciprocal immunoprecipitation with anti-OGT and anti-FAM134B antibodies, blotted with anti-OGT and anti-FAM134B
T2 sequence: T1 sequence

[3] = target: Flag-tagged FAM134B (family with sequence similarity 134, member B) (human (from the printed RefSeq NM_001034850)) (UniProt Q9H6L5); experiment: co-IP; human NP cells cotransfected with HA-OGT and Flag-FAM134B; whole-cell lysates immunoprecipitated with anti-Flag or anti-HA antibodies, blotted with anti-Flag and anti-HA
[4] = target: endogenous FAM134B (human (endogenous in NP cells)) (UniProt Q9H6L5); experiment: co-IP; endogenous proteins in human NP cells, control or nutrient deprivation (ND); reciprocal immunoprecipitation with anti-OGT and anti-FAM134B antibodies, blotted with anti-OGT and anti-FAM134B

binding [1]: binds
Molecule: Flag-tagged FAM134B (family with sequence similarity 134, member B) (from UniProt Q9H6L5-1 1-497)

binding [2]: binds
Molecule: endogenous FAM134B (from UniProt Q9H6L5 1-497)

binding [3]: binds
B1: HA-tagged O-GlcNAc transferase (OGT) (enzyme, UniProt O15294-1 1-1046)
chain: T1 sequence

binding [4]: binds
B2: endogenous O-GlcNAc transferase (OGT) (enzyme, UniProt O15294 1-1046)
chain: T1 sequence
